Laboratory results: PubChem BioAssay AID652243 (Drosophila RNAi Screening Center, 2013)
Assay: 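Knock-downs that decrease or increase androgen receptor reporter signal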 (primary screen). Cell system: Drosophila S2R+ cells. Reagents: long dsRNA against Drosophila genes. Time to read-out: 72 h (48 h, then 24 h hormone). Treatment: synthetic androgen R1881 at 10 nM for 24 h. Read-out: 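Firefly light from an androgen-responsive reporter and Renilla control light per well, raw and unnormalised, for each of two replicates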. Reading the numbers: firefly reporter light: higher = more light from androgen-responsive reporter; Renilla control light: higher = more constitutive control signal (cell number, transfection). Active means: 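Hit when the log firefly-to-Renilla ratio dropped or increased by a fixed fold versus the mean of GFP or LacZ controls across duplicate plates; lowering cut given as 1.5 and as 3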. Meaning of the calls: active = hit: reporter lowered or raised; inactive = no hit.
The screen tested about 24,000 reagents; this is a random part of those with a known target gene and a result. Of all reagents, 246 (1%) are marked active. 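Plates not normalised; calls are printed but the firefly/Renilla ratio behind them is not deposited; fold cut for lowering reported inconsistently.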 Raw values are not corrected between plates. Reagents against one gene are numbered here. Not given: the amount of reagent.

For Cib2 (GeneID 37363) #1 the deposit lists firefly reporter light, replicate 1 = 3.65e5; firefly reporter light, replicate 2 = 2.40e5; Renilla control light, replicate 1 = 2.21e6; Renilla control light, replicate 2 = 1.80e6; inactive. Against Cib2 (GeneID 37363) #2 the deposit lists inactive. Depletion of Cyp312a1 (GeneID 40005) #1 came out at: firefly reporter light, replicate 1 = 2.21e5; firefly reporter light, replicate 2 = 2.31e5; Renilla control light, replicate 1 = 1.91e6; Renilla control light, replicate 2 = 2.19e6; inactive. With knock-down of Cyp312a1 (GeneID 40005) #2, the record shows firefly reporter light, replicate 1 = 5.35e5; firefly reporter light, replicate 2 = 3.53e5; Renilla control light, replicate 1 = 5.44e5; Renilla control light, replicate 2 = 4.93e5; inactive. With knock-down of CG18598 (GeneID 42188), the record shows firefly reporter light, replicate 1 = 97099; firefly reporter light, replicate 2 = 1.39e5; Renilla control light, replicate 1 = 1.50e6; Renilla control light, replicate 2 = 1.79e6; inactive.

Records listed so far whose gene name begins with C or c:
Cib2 (GeneID 37363) #1 — firefly reporter light, replicate 1 = 3.65e5; firefly reporter light, replicate 2 = 2.40e5; Renilla control light, replicate 1 = 2.21e6; Renilla control light, replicate 2 = 1.80e6; activity call = inactive
Cib2 (GeneID 37363) #2 — activity call = inactive
Cyp312a1 (GeneID 40005) #1 — firefly reporter light, replicate 1 = 2.21e5; firefly reporter light, replicate 2 = 2.31e5; Renilla control light, replicate 1 = 1.91e6; Renilla control light, replicate 2 = 2.19e6; activity call = inactive
Cyp312a1 (GeneID 40005) #2 — firefly reporter light, replicate 1 = 5.35e5; firefly reporter light, replicate 2 = 3.53e5; Renilla control light, replicate 1 = 5.44e5; Renilla control light, replicate 2 = 4.93e5; activity call = inactive
CG18598 (GeneID 42188) — firefly reporter light, replicate 1 = 97099; firefly reporter light, replicate 2 = 1.39e5; Renilla control light, replicate 1 = 1.50e6; Renilla control light, replicate 2 = 1.79e6; activity call = inactive

The results go on.
Depletion of CG31294 (GeneID 318666) #1 gave: firefly reporter light, replicate 1 = 5.31e5; firefly reporter light, replicate 2 = 5.96e5; Renilla control light, replicate 1 = 2.47e6; Renilla control light, replicate 2 = 1.84e6; inactive. For CG31294 (GeneID 318666) #2, the entry reads firefly reporter light, replicate 1 = 2.79e5; firefly reporter light, replicate 2 = 2.91e5; Renilla control light, replicate 1 = 5.21e5; Renilla control light, replicate 2 = 5.44e5; inactive. Silencing of pot (GeneID 32154) #1 gave: firefly reporter light, replicate 1 = 58016; firefly reporter light, replicate 2 = 85032; Renilla control light, replicate 1 = 4.50e5; Renilla control light, replicate 2 = 3.85e5; inactive. With knock-down of pot (GeneID 32154) #2, the screen gave firefly reporter light, replicate 1 = 4.12e5; firefly reporter light, replicate 2 = 3.16e5; Renilla control light, replicate 1 = 7.18e5; Renilla control light, replicate 2 = 4.45e5; inactive. Against CG5177 (GeneID 34017) #1 the deposit lists firefly reporter light, replicate 1 = 6.94e5; firefly reporter light, replicate 2 = 8.93e5; Renilla control light, replicate 1 = 1.95e6; Renilla control light, replicate 2 = 2.38e6; inactive. CG5177 (GeneID 34017) #2 gave inactive.

Knock-down of Pcif1 (GeneID 40295) #1 gave: firefly reporter light, replicate 1 = 40221; firefly reporter light, replicate 2 = 57421; Renilla control light, replicate 1 = 5.28e5; Renilla control light, replicate 2 = 4.40e5; inactive. Depletion of Pcif1 (GeneID 40295) #2 gave: firefly reporter light, replicate 1 = 6.47e5; firefly reporter light, replicate 2 = 7.92e5; Renilla control light, replicate 1 = 1.01e6; Renilla control light, replicate 2 = 8.34e5; inactive. For CG5742 (GeneID 37072) #1 the deposit lists firefly reporter light, replicate 1 = 8.69e5; firefly reporter light, replicate 2 = 1.93e5; Renilla control light, replicate 1 = 9.01e5; Renilla control light, replicate 2 = 3.95e5; inactive. Depletion of CG5742 (GeneID 37072) #2 came out at: firefly reporter light, replicate 1 = 4.79e5; firefly reporter light, replicate 2 = 3.96e5; Renilla control light, replicate 1 = 1.24e6; Renilla control light, replicate 2 = 1.43e6; inactive.
